Experimental data published in US20200282035A1 (MILTENYI BIOTEC B V, published 2020).
Results are given in words; binding and its absence hold for the method and conditions named. Some entries that bind do so weakly or less than the wild type.

Protein sequences, listed by entry. Tags and fused reporters are not part of them. Residues count along the entry.
UniProt P26006, residues 33-1051: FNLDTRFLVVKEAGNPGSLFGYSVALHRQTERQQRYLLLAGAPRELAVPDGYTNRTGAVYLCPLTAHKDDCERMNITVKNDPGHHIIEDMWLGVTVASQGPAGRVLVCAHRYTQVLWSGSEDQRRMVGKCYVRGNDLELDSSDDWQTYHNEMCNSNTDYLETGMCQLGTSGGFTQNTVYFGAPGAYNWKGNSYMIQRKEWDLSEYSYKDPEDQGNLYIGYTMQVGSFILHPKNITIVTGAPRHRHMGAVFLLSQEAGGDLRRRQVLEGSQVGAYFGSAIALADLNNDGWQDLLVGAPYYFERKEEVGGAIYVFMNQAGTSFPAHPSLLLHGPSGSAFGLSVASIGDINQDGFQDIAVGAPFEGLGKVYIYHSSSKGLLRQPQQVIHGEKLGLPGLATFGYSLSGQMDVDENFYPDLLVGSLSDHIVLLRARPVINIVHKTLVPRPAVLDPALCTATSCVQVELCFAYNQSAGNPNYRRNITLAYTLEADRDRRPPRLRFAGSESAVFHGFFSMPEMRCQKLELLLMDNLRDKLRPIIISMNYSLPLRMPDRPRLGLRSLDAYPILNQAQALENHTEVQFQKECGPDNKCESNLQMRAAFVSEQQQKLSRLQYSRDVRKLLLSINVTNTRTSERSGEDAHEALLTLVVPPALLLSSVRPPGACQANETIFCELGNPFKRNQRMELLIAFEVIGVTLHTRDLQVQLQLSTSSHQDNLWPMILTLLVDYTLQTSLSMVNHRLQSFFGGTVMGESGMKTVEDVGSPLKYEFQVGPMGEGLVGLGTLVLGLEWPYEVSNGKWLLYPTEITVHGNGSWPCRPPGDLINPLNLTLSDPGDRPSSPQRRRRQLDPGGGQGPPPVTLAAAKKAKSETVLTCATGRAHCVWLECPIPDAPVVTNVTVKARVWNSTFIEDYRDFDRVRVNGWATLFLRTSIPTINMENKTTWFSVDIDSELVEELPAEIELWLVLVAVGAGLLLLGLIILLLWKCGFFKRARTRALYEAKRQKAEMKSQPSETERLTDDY
UniProt P16144, residues 28-1822: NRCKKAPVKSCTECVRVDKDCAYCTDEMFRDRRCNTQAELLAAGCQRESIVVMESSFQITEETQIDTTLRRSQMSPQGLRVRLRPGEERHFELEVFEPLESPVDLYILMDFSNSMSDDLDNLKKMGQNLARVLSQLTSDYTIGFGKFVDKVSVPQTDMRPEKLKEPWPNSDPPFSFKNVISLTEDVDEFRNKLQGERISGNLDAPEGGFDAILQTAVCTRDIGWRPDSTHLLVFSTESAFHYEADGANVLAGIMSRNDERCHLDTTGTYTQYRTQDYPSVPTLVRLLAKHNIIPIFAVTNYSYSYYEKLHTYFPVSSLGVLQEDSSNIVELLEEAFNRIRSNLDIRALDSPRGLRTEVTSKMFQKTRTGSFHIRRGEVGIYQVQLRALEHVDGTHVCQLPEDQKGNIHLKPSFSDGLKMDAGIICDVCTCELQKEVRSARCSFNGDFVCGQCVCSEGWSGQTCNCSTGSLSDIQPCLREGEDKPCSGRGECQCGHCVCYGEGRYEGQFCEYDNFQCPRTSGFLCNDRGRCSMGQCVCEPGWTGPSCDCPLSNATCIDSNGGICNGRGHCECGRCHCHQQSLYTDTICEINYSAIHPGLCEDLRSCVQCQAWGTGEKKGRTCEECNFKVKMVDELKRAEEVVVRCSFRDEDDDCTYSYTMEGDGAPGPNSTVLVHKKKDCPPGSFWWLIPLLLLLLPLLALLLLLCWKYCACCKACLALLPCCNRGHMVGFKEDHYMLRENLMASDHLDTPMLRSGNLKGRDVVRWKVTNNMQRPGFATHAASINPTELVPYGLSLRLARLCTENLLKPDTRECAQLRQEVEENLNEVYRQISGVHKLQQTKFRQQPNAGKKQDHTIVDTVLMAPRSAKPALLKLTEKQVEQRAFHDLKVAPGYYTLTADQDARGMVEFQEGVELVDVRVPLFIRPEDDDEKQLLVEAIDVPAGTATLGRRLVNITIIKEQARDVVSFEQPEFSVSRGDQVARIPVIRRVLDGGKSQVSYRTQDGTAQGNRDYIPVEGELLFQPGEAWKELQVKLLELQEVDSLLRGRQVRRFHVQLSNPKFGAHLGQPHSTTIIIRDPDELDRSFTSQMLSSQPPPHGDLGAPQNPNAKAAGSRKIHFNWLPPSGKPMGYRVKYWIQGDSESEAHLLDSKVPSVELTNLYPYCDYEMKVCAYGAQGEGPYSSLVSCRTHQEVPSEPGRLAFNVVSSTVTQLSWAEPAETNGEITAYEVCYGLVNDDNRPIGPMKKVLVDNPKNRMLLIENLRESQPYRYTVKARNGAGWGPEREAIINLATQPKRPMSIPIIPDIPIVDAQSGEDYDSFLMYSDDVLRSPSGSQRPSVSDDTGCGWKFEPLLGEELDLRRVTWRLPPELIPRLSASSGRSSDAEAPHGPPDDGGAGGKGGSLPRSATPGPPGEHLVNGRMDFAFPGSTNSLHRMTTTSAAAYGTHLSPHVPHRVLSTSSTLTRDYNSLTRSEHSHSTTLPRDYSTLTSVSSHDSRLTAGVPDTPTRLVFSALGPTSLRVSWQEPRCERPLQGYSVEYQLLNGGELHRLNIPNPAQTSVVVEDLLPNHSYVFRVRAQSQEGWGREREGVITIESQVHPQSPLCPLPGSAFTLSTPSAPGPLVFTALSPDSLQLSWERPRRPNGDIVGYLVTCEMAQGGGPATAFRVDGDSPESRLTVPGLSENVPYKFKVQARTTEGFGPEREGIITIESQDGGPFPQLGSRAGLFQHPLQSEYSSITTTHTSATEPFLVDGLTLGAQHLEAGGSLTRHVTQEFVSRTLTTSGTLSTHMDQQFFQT

Legend:
CD49c (human) = CD49c (human) (UniProt P26006); assay: scFv as binding domain of a CAR on T cells; told in words only, no direct binding assay
CD104 (human) [1] = target: CD104 (human) (UniProt P16144); assay: as above
CD104 (human) [2] = target: CD104 (human) (UniProt P16144); assay: antibody used for staining of human pancreatic cancer cells (flow cytometry, immunohistochemistry; Example 1); told in words only

Row | binding (CD49c (human)) | binding (CD104 (human) [1]) | Binder | other results
1 | binds | – | CD49c specific CAR sequence VH-linker-VL (scFv, not shown: small tags and cut ends) scFv: EVQLQQSGAELVKPGASVKLSCTASGFNIKDTYMHWVKQRPEQGLEWIGRIDPANGHTKYDPKFQGKATITADTSSNAAYLQLNSLTSEDTAVYYCARRVAYAMDYWGQGTSVTVSSGGGGSGGGGSGGGGSENVLTQSPAIMSASPGEKVTMTCSASSSVTYMHWYQQKSSTSPKLWIYDTSKLASGVPGRFSGSGSGNSYSLTISSMEAEDVATYCCFQGSGYPLTFGGGTKLEIK | –
2 | – | binds | CD104 specific CAR sequence VL-linker-VH (scFv, not shown: small tags and cut ends) scFv: DIQMTQTPSSMPASLGERVTISCRASRGINNYLSWYQQNLDGTIKPLIYYTSNLQSGVPSRFSGSGSGTDYSLTISSLEPEDFAMYYCQQYDSSPWTFGGGTKLELKGGGGSGGGGSGGGGSQVNLLQSGAALVKPGASVKLSCKASGYTFTDYYIFWVKQSHGKSLEWIGYINPNSGSTNYNEKFKRKATLSVDKSTNTAYMELSRLTSEDSATYYCTRRAYYGYNPFDYWGQGVMVTVSS | –
3 | binds | – | CD49c specific CAR sequence VL-linker-VH (scFv, not shown: small tags and cut ends) scFv: ENVLTQSPAIMSASPGEKVTMTCSASSSVTYMHWYQQKSSTSPKLWIYDTSKLASGVPGRFSGSGSGNSYSLTISSMEAEDVATYCCFQGSGYPLTFGGGTKLEIKGGGGSGGGGSGGGGSEVQLQQSGAELVKPGASVKLSCTASGFNIKDTYMHWVKQRPEQGLEWIGRIDPANGHTKYDPKFQGKATITADTSSNAAYLQLNSLTSEDTAVYYCARRVAYAMDYWGQGTSVTVSS | –
4 | – | binds | CD104 specific CAR sequence VH-linker-VL (scFv, not shown: small tags and cut ends) scFv: QVNLLQSGAALVKPGASVKLSCKASGYTFTDYYIFWVKQSHGKSLEWIGYINPNSGSTNYNEKFKRKATLSVDKSTNTAYMELSRLTSEDSATYYCTRRAYYGYNPFDYWGQGVMVTVSSGGGGSGGGGSGGGGSDIQMTQTPSSMPASLGERVTISCRASRGINNYLSWYQQNLDGTIKPLIYYTSNLQSGVPSRFSGSGSGTDYSLTISSLEPEDFAMYYCQQYDSSPWTFGGGTKLELK | –
5 | – | – | CD104 specific antibody (antibody, V domains shown) VH: QVNLLQSGAALVKPGASVKLSCKASGYTFTDYYIFWVKQSHGKSLEWIGYINPNSGSTNYNEKFKRKATLSVDKSTNTAYMELSRLTSEDSATYYCTRRAYYGYNPFDYWGQGVMVTVSS VL: DIQMTQTPSSMPASLGERVTISCRASRGINNYLSWYQQNLDGTIKPLIYYTSNLQSGVPSRFSGSGSGTDYSLTISSLEPEDFAMYYCQQYDSSPWTFGGGTKLELK | binding (CD104 (human) [2]): binds
